Experimental data as given in patent US9506032B2, “Engineered biological pacemakers” (The United States of America, as represented by the …, priority 2009, dated 2016).

Test system: spontaneously beating ESCs
Experiment: Spontaneous action potentials and Ca2+ signals in intact spontaneously beating ESCs (patch clamp with confocal imaging)
Type: cell-based, Mouse
Settings: 200 nM, 6 cells
Excerpt: Mouse ES cells of line R1 were differentiated into cardiac cells using the “hanging drop” technique. ESCs were isolated from in vitro-grown embryoid bodies by microdissection followed by collagenase treatment. […] At day 2, EBs were transferred into bacteriological petri dishes and cultured in suspension until day 5. […] Individual spontaneously beating ESCs were isolated by microdissection and collagenase treatment.
ESCs differentiated in vitro for 9 to 20 days after plating of 7 days old embryoid bodies were studied during continuous superfusion with solution containing in mmol/L: 140 NaCl, 5.4 KCl, 5 HEPES, 2 MgCl2, 1.8 CaCl2, 10 glucose, (pH adjusted to 7.4 with NaOH). Selection of the cells for patch-clamp technique was based on spontaneous beating. Action potentials were measured at physiological temperature (35±2° C.) with standard current-clamp technique (Axopatch 200, Axon Instruments, Foster City, Calif., USA), pCLAMP7 software was used for data acquisition and analysis (Axon Instruments). Perforated patch-clamp technique was performed with β-escin added to the electrode solution. […]
Fluo-4 measurements are presented in terms of F/F0 (normalized Ca^2+ signal). […] were analyzed by programs developed using Delfi-7 software. The duration and width of LCRs were measured as the time at half-maximal amplitude of the normalized signal.

## COC(=O)C1=C(C)NC(C)=C(C(=O)OC)C1c1ccccc1[N+](=O)[O-] [nifedipine]
  duration of temporal phase with substantial CL variability preceding suppression of beating: about 1 min
